# Source: article PMC4608839
# Protein sequences, listed by entry. Tags and fused reporters are not part of them.
# UniProt Q95V55: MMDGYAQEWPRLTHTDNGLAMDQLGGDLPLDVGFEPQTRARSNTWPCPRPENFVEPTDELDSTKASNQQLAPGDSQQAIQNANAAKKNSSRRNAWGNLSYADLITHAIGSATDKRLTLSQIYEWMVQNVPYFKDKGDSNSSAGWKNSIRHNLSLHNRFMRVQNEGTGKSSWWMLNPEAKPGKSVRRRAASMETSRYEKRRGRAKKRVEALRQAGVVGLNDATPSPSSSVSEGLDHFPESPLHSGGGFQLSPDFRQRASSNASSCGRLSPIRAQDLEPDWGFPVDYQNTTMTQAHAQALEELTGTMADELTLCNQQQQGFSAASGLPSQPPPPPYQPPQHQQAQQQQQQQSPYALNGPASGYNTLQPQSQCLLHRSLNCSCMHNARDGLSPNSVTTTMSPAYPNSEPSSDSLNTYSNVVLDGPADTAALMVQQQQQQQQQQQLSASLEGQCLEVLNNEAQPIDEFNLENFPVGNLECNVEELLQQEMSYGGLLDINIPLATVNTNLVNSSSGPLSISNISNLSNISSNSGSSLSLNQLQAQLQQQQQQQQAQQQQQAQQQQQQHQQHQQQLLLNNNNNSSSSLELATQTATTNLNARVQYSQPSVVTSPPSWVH
# No constants are given. Whether binding was seen depends on the method and setting. Binding seen in cells or lysates may run through a third protein. Some results given as binding are weak or reduced against the parent protein; the word gives no strength. Where a sequence is shown, tags or fusion partners need not be part of it.
# Target: T1, HA-tagged Pelle (HA-Pll) (Drosophila melanogaster) (UniProt Q05652)
# T1 sequence: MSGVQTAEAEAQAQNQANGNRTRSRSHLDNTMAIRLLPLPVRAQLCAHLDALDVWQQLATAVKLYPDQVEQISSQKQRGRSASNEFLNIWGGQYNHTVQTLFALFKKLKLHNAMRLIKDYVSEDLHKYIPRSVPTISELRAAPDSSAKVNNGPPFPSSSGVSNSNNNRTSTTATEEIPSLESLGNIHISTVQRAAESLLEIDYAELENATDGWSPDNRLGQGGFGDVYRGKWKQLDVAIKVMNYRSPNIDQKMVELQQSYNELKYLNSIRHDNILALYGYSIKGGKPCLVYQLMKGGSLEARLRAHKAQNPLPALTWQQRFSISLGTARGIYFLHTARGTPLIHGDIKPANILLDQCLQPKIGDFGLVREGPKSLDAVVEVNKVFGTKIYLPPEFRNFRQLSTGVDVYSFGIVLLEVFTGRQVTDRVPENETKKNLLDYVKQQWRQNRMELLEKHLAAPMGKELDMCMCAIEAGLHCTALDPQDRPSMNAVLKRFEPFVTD
# Experiment: co-IP; HA-Pll and Flag-dFoxO co-transfected with Actin-GAL4 in Drosophila S2R+ cells; lysed in RIPA buffer with PMSF 48 hours after transfection; which protein was precipitated is not told
substance,measurement,value
Flag-tagged dFoxO (Flag-dFoxO) (from UniProt Q95V55 1-613),binding,binds
